The values below come from publication PMC12362615, “Design, Synthesis, and Cellular Characterization of a New Class of IPMK Kinase Inhibitors” (Journal of Medicinal Chemistry, 2025).

The data set relates to human U251-MG glioblastoma cells. In words: RNA-seq transcriptome analysis. Format: cell-based. The note with it: 400 nM, 48 h, vs DMSO. How it is done:
DNase-treated RNA prepared from one well of a six-well plate (approximately 10^6 cells) was extracted using the Quick-RNA MiniPrep kit (Zymo Research) from human U251-MG glioblastoma cells (ECACC 09063001) after 48 h of treatment with compound 1. PolyA-selected RNA-seq libraries were prepared and sequenced at the Vanderbilt Technologies for Advanced Genomics (VANTAGE) core on an Illumina NextSeq500. Bases and reads with low-quality scores or reads, were removed, and Illumina library adapter sequences were trimmed using bbDuk (https://jgi.doe.gov/data-and-tools/software-tools/bbtools/bb-tools-user-guide/bbduk-guide/). The resulting files were mapped to hg38 using HiSat2, and poorly mapped reads were removed with SamTools. Reads mapping to RefSeq genes were counted using HTSeq-count and differential expression was assessed using DESeq2 with Apeglm LFC Shrinkage, expressed as compound 1/DMSO in all log 2 fold-change expressions. Gene sets from the Molecular Signatures Database (version 6.1) were used for Gene Set Enrichment Analysis (GSEA).

Molecules are shown by their SMILES.

Regarding `Cc1cc(C)cc(-c2onc3ccc(/C=C/C(=O)O)cc23)c1` [Compound 1, (E)-3-(3-(3,5-Dimethylphenyl)benzo[c]isoxazol-5-yl)acrylic Acid], the “differentially expressed transcripts (p adj < 0.05, log2FC > ±1)” value is given as 993; the transcripts downregulated worked out at 661; the transcripts upregulated turned out to be 332.
